The values that follow come from paper PMC9823104.

Sequences of proteins named here, by UniProt entry; tags and fusion partners are left off. A change or cut given only in a name is not applied to a line headed by its entry.
UniProt P26358: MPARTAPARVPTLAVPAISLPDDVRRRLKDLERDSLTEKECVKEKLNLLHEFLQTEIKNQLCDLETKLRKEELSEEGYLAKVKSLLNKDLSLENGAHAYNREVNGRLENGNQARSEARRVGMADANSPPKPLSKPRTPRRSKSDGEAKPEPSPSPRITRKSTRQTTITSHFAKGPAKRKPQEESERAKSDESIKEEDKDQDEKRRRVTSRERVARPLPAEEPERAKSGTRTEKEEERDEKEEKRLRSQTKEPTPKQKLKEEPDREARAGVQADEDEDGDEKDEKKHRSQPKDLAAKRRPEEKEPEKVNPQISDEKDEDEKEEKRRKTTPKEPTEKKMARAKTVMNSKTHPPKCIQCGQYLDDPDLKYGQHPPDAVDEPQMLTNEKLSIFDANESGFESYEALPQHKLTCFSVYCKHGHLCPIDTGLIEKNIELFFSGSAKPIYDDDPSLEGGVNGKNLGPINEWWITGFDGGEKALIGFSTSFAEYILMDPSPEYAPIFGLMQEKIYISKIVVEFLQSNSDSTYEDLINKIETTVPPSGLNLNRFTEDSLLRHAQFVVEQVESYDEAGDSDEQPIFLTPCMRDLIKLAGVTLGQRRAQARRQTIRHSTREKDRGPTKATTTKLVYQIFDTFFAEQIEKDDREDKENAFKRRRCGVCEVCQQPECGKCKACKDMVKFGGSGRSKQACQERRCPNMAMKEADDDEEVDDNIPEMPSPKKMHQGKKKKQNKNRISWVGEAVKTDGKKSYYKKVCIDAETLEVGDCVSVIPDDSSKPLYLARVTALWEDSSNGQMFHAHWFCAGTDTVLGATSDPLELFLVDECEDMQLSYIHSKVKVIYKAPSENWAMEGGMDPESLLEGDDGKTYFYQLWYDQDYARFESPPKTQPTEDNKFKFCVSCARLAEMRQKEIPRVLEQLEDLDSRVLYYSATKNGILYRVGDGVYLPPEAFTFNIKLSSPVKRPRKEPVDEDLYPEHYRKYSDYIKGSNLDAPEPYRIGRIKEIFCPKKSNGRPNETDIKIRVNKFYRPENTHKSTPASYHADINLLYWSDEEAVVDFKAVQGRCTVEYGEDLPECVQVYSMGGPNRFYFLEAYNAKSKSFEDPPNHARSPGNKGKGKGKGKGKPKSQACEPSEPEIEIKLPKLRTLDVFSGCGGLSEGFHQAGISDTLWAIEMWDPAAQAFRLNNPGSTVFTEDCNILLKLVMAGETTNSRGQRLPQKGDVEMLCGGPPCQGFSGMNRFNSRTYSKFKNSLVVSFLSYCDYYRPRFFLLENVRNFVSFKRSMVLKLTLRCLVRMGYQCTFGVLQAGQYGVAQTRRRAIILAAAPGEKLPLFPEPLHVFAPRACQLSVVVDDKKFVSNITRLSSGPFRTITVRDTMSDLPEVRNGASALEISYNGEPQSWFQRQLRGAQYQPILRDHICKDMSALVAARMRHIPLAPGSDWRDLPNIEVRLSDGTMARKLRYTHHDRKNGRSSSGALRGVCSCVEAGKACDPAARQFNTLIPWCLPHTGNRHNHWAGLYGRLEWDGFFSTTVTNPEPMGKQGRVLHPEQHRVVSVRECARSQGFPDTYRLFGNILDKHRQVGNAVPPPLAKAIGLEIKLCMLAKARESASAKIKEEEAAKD

For data set [1], the target named is DNMT1 (purified, Active Motif) (UniProt P26358). In words: EMSA. The settings on record: 5 mM Mg2+, 0.8 uM protein; 2'-F pyrimidines (all C and U); EMSA: 5 mM Tris pH 7.4, 5 mM MgCl2, 1 mM DTT, 3% glycerol, 100 mM NaCl, RT; commercial protein; label: 5' 32P.
For data set [2], the target named is DNMT1 endogenous (K562) (UniProt P26358). In words: pull-down. As to conditions: 200 nM RNA; 2'-F pyrimidines (all C and U); pulldown: 10 mM Tris pH 7.5, 5 mM EDTA, 0.1% Triton X-100; protein in an extract; label: biotin (3' in Fig. 2c).
For data set [3], the target named is Human serum albumin (HSA) (Homo sapiens) (UniProt P02768). The data set is described as follows: ELONA. As to conditions: up to 750 nM RNA; 2'-F pyrimidines (all C and U); label: biotin (3' in Fig. 2c).
Data set [4] deals with DNMT3A (UniProt Q9Y6K1). The data set is described as follows: BLI. The settings on record: 2'-F pyrimidines (all C and U); BLI: AR2G tips, protein amine-coupled, assay buffer not fully stated (PBS pre-hydration); commercial protein.
Data set [5] deals with KAT5 (UniProt Q92993). The data set is described as follows: BLI. As to conditions: 2'-F pyrimidines (all C and U); BLI: AR2G tips, protein amine-coupled, assay buffer not fully stated (PBS pre-hydration); commercial protein.
Data set [6] has as its target DNMT3B (UniProt Q9UBC3). The data set is described as follows: BLI. As to conditions: 2'-F pyrimidines (all C and U); BLI: AR2G tips, protein amine-coupled, assay buffer not fully stated (PBS pre-hydration); commercial protein.

For some of these results: No signal at the amounts used counts as a negative. For some of these results: Construct, isoform or probe ends are uncertain for at least one entry. For some of these results: At least one verdict rests on a figure or table, not on a statement of the authors. For some of these results: Results from cells or extracts need not show a direct contact.

Take CUGAGGCCUAACGAAGGCUUCU [Ce-49 sh 32P]: the binding result in data set [1] was “binds”.
For the sequence “CUGAGGCCUAACGAAGGCUUCU [Ce-49 sh biotin]”, the binding result in data set [2] is “binds”; in data set [3], “no binding”.
In the case of CUGAGGCCUAACGAAGGCUUCU [Ce-49 sh], the binding result in data set [4], in data set [5] and in data set [6] was “no binding” each time.
Consider “CUGAGGCCUUGGCGAGGCUUCU [DNMT1 bait (2'F-Py R5)]”, for which the binding result in data set [4], in data set [5] and in data set [6] was “no binding” each time.
With “CUGAGGCCUUGGCGAGGCUUCU [DNMT1 bait biotin]”, the binding result in data set [2] is reported as “binds”.
For “UUACUGGGCUGAGGUAAUGGCGAGG [Ce-10-2 sh 32P]”, the binding result in data set [1] is given as “binds”.
Turning to “UUACUGGGCUGAGGUAAUGGCGAGG [Ce-10-2 sh biotin]”, the binding result in data set [2] is “binds”; in data set [3], “no binding”.
With UUACUGGGCUGAGGUAAUGGCGAGG [Ce-10-2 sh], the binding result in data set [4], in data set [5] and in data set [6] was “no binding” throughout.
